Laboratory results reported in US20090233858A1.
Results are given in words; binding and its absence hold for the method and conditions named. Some results given as binding are weak or reduced against the parent protein; the word gives no strength.

Amino acid sequences for entries named in this document (tags omitted). A change or cut given only in a name is not applied to a line headed by its entry.
UniProt P30153: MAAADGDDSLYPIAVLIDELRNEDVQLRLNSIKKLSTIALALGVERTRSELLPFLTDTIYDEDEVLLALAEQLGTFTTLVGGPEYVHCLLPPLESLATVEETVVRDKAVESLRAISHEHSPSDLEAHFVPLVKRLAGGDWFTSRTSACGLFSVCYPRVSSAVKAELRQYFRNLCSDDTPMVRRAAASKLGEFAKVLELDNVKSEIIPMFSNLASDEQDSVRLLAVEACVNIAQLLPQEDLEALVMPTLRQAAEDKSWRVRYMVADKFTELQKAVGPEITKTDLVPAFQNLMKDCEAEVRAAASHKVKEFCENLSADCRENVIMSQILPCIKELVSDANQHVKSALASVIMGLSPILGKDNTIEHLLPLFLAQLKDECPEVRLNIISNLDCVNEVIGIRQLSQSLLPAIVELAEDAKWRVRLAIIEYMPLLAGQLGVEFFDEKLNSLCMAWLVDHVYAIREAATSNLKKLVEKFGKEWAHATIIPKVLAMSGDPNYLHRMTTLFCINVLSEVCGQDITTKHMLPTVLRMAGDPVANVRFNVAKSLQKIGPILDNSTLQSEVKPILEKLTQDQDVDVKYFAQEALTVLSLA

Biological target: heterotrimeric PP2A holoenzyme involving the Bα subunit (human) (UniProt P30153)
Assay: native PAGE and gel filtration

binding: binds
B1: Tau fragment (residues 265-328) (peptide)
peptide: GSLGNIHHKPGGGQVEVKSEKLDFKDRVQSKIGSLDNITHVPGGGNKKIETHKLTFRENAKAKT
